Results as given in article PMC2910475.
No constants are given. Whether binding was seen depends on the method and setting. Where a sequence is shown, tags or fusion partners need not be part of it.

Molecular target: Rio1p Ser/Thr kinase homolog (HVO_0135) with C-terminal StrepII tag (Haloferax volcanii) (UniProt D4GYY1)
Test: SEC; StrepTactin-purified Rio1p on a calibrated Superose 200 HR 10/30 column; 20 mM Tris pH 7.2, 2 M NaCl; both purified

binding: no binding
B1: Rio1p Ser/Thr kinase homolog (HVO_0135) with C-terminal StrepII tag (enzyme, UniProt D4GYY1 1-290)
chain: MTDEFGMVEPQEGEAFGDEWEEIDVSDDEADRIARRKDRDFDEFRMRLKDADQFKVEQSVFDDATFAAIYKLVQDGHIDAFGGPISTGKEANVFEALGGDDADVAVKIYRINASDFRHMRDYLEGDPRFENIGHDKGQVVRAWVRKEFANLERAQRAGVRVPKPIAVQRNVLVMELVGVVDDRARRLSEVRVENPQTAYEVVREYMRRLHRAGLVHGDLSEYNLIIHDGELVVIDLGQAVTVHHPNAEEFLRRDCRNVANFFRRQGADADGDSLYEFVTGDEGEDGDGDE
